Measurements published in paper doi:10.1101/2021.12.29.474403.
The exact form of at least one protein or probe is not confirmed. Negatives hold for the conditions tested. At least one verdict rests on a figure or table, not on a statement of the authors.

By UniProt entry, the sequences of proteins in these tests, tags left out. Where a name states a change or a piece, a line headed by the entry shows the natural chain unless it says otherwise.
UniProt O65665: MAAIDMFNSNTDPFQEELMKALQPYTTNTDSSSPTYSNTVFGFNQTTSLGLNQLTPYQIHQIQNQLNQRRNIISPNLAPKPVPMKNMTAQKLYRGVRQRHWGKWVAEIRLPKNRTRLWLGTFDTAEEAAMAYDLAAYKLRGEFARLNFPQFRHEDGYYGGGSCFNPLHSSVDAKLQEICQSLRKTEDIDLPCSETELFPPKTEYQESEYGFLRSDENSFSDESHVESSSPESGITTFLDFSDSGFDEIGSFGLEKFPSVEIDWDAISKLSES

Biological target: AtERF60 (GST fusion) (Arabidopsis thaliana) (UniProt O65665)
Experiment: EMSA

| Sequence | binding result |
| --- | --- |
| AGAACCGACAGATACCGACTGGCCGCCCT (double strand) [DRE-2] | binds |
| AGAACATCAGATACATCTGACATCCT (double strand) [ABRE-1 (M) / ABRE-2 (M) (same printed sequence)] | no binding |
| AGAACCTACAGATACCTACTGACCTACCT (double strand) [DRE-2 (M)] | no binding |
| AGAACGTGAGATACGTGTGACGTGCT (double strand) [ABRE-2] | no binding |
| AGAAGCCACCAGATAGCCACCTGAGCCACCCT (double strand) [GCC (M)] | no binding |
| AGAGCCTACAGATGCCTACTGGCCTACCT (double strand) [DRE-1 (M)] | no binding |
| AGAGCCGACAGATGCCGACTGGCCGACCT (double strand) [DRE-1] | binds |
| AGAAGCCGCCAGATAGCCGCCTGAGCCGCCCT (double strand) | binds |
| AGAACGTCAGATACGTCTGACGTCCT (double strand) [ABRE-1] | no binding |
